From publication PMC7320018
Where two headings read alike, the source gives them in different places. Results are given in words; binding and its absence hold for the method and conditions named. In cells and extracts the contact can be indirect. These calls come from enrichment with a bait or labelling near it, and not all partners need be listed. Sequences can lack the tags named with a protein. One block for each molecule: values may come before it.

Amino acid sequences for entries named in this document (tags omitted).
UniProt P53350: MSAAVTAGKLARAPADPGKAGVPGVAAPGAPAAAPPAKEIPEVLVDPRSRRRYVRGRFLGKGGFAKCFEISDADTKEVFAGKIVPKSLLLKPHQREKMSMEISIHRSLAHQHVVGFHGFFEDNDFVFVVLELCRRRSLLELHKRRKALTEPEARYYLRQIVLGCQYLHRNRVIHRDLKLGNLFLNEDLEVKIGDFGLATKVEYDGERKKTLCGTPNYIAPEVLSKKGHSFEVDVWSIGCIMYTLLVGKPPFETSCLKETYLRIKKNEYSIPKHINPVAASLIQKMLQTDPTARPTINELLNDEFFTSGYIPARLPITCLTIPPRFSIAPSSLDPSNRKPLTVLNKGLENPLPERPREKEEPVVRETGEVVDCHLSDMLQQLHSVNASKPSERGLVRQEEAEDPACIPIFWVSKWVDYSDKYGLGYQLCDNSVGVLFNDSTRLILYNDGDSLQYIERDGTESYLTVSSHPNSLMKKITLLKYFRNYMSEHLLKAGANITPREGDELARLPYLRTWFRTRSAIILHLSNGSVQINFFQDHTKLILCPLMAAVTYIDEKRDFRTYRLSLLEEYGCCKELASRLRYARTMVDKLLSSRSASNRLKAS

Legend:
[1] = molecular target: T1, TBC1 Domain Family Member 9, tagged bait (3xFLAG or BirA*-FLAG construct, not told which) (human) (UniProt Q6ZT07); test: affinity purification with mass spectrometry + proximity labelling; interactor named in the discussion from the AP-MS and BioID screens in HEK293 Flp-In T-REx; which of the two screens gave it is not told
T1 sequence: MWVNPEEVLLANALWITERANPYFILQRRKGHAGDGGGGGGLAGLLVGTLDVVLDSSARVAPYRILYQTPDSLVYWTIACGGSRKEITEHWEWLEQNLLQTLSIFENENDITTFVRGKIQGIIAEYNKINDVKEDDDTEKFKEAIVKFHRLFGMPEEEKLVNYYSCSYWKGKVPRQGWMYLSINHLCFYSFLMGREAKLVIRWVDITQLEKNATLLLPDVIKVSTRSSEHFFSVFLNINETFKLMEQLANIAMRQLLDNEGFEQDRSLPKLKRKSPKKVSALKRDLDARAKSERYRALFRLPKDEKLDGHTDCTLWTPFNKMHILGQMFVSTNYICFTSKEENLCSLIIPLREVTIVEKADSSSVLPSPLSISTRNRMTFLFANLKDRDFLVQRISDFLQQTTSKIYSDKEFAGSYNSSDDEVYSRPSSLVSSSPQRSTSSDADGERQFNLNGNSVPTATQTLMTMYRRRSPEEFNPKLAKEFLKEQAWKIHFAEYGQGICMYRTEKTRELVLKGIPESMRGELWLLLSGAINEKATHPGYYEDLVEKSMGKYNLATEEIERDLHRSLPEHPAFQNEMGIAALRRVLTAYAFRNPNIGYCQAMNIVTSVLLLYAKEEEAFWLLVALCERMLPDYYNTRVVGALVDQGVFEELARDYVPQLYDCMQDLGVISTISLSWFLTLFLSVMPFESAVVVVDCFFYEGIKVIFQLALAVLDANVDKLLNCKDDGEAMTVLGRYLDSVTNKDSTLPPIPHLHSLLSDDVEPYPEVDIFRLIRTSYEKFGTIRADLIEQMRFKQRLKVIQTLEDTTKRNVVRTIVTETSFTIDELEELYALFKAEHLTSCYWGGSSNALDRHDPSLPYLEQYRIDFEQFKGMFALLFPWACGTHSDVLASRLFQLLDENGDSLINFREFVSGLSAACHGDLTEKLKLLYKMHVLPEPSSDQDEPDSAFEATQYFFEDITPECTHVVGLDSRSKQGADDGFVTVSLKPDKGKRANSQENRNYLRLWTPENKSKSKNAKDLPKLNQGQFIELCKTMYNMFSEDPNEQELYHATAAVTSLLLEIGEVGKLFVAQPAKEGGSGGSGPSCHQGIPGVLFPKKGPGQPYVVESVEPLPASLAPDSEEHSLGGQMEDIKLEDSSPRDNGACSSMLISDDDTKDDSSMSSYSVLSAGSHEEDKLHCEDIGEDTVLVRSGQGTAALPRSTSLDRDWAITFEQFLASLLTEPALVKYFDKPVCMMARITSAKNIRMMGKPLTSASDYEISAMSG

[2] = molecular target: T2, Milk Fat Globule-EGF Factor 8 Protein fused to BirA*-FLAG (human) (UniProt Q08431); test: proximity labelling; BioID: BirA*-FLAG bait induced with tetracycline and 50 µM biotin 24 h in HEK293 Flp-In T-REx; RIPA lysis; streptavidin sepharose 3 h at 4 °C; on-bead trypsin, LC-MS/MS; SAINTexpress BFDR ≤ 0.01 against BirA*-FLAG controls (GFP, NLS, alone), then Crapome filter
T2 sequence: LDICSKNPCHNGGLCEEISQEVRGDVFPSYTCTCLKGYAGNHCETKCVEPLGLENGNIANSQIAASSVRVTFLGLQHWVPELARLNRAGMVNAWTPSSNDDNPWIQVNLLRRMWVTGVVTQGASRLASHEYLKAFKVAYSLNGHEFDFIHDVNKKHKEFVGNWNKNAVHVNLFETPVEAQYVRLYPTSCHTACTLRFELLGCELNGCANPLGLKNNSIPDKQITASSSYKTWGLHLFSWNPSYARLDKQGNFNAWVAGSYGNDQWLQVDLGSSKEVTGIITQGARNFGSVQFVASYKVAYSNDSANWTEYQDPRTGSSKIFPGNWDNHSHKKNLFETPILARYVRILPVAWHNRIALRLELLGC

[3] = molecular target: T2, Milk Fat Globule-EGF Factor 8 Protein fused to BirA*-FLAG (human); test: as above; remark: listed apart in the source
[4] = molecular target: T3, TBC1 Domain Family Member 9 with 3xFLAG (human) (UniProt Q6ZT07); test: affinity purification with mass spectrometry; 3xFLAG bait induced 24 h with tetracycline in HEK293 Flp-In T-REx; lysis in 0.1% NP-40, 50 mM HEPES-NaOH pH 8.0, 100 mM KCl, 2 mM EDTA, 10% glycerol; anti-FLAG M2 magnetic beads 2 h at 4 °C; on-bead trypsin, LC-MS/MS; SAINTexpress BFDR ≤ 0.01 against untagged parental cells, then Crapome filter
T3 sequence: T1 sequence

[5] = molecular target: T4, TBC1 Domain Family Member 9 fused to BirA*-FLAG (human) (UniProt Q6ZT07); test: proximity labelling; BioID: BirA*-FLAG bait induced with tetracycline and 50 µM biotin 24 h in HEK293 Flp-In T-REx; RIPA lysis; streptavidin sepharose 3 h at 4 °C; on-bead trypsin, LC-MS/MS; SAINTexpress BFDR ≤ 0.01 against BirA*-FLAG controls (GFP, NLS, alone), then Crapome filter
T4 sequence: T1 sequence

Molecule: DXDR (human (endogenous in HEK293))
binding [2]: binds

B2: ADP Ribosylation Factor Like GTPase 8A (protein, UniProt Q96BM9 1-186)
chain: MIALFNKLLDWFKALFWKEEMELTLVGLQYSGKTTFVNVIASGQFNEDMIPTVGFNMRKITKGNVTIKLWDIGGQPRFRSMWERYCRGVSAIVYMVDAADQEKIEASKNELHNLLDKPQLQGIPVLVLGNKRDLPGALDEKELIEKMNLSAIQDREICCYSISCKEKDNIDITLQWLIQHSKSRRS
binding [4]: binds

B3: ABHD16A (protein, UniProt O95870 1-558)
chain: MAKLLSCVLGPRLYKIYRERDSERAPASVPETPTAVTAPHSSSWDTYYQPRALEKHADSILALASVFWSISYYSSPFAFFYLYRKGYLSLSKVVPFSHYAGTLLLLLAGVACLRGIGRWTNPQYRQFITILEATHRNQSSENKRQLANYNFDFRSWPVDFHWEEPSSRKESRGGPSRRGVALLRPEPLHRGTADTLLNRVKKLPCQITSYLVAHTLGRRMLYPGSVYLLQKALMPVLLQGQARLVEECNGRRAKLLACDGNEIDTMFVDRRGTAEPQGQKLVICCEGNAGFYEVGCVSTPLEAGYSVLGWNHPGFAGSTGVPFPQNEANAMDVVVQFAIHRLGFQPQDIIIYAWSIGGFTATWAAMSYPDVSAMILDASFDDLVPLALKVMPDSWRGLVTRTVRQHLNLNNAEQLCRYQGPVLLIRRTKDEIITTTVPEDIMSNRGNDLLLKLLQHRYPRVMAEEGLRVVRQWLEASSQLEEASIYSRWEVEEDWCLSVLRSYQAEHGPDFPWSVGEDMSADGRRQLALFLARKHLHNFEATHCTPLPAQNFQMPWHL
binding [5]: binds

Results, then the molecule that gave them:

binding [1]: binds
Molecule: polo-like kinase 1 (from UniProt P53350 1-603)

binding [3]: binds
B1: TRIM13 (protein, UniProt O60858 1-407)
chain: MELLEEDLTCPICCSLFDDPRVLPCSHNFCKKCLEGILEGSVRNSLWRPAPFKCPTCRKETSATGINSLQVNYSLKGIVEKYNKIKISPKMPVCKGHLGQPLNIFCLTDMQLICGICATRGEHTKHVFCSIEDAYAQERDAFESLFQSFETWRRGDALSRLDTLETSKRKSLQLLTKDSDKVKEFFEKLQHTLDQKKNEILSDFETMKLAVMQAYDPEINKLNTILQEQRMAFNIAEAFKDVSEPIVFLQQMQEFREKIKVIKETPLPPSNLPASPLMKNFDTSQWEDIKLVDVDKLSLPQDTGTFISKIPWSFYKLFLLILLLGLVIVFGPTMFLEWSLFDDLATWKGCLSNFSSYLTKTADFIEQSVFYWEQVTDGFFIFNERFKNFTLVVLNNVAEFVCKYKLL
